Experimental data as given in publication PMC7253684.
These are yes or no findings as the source states them, for the method shown. In cells and extracts the contact can be indirect. Some entries that bind do so weakly or less than the wild type.

Chains of the proteins cited; added tags and fusions are not shown.
UniProt P35222: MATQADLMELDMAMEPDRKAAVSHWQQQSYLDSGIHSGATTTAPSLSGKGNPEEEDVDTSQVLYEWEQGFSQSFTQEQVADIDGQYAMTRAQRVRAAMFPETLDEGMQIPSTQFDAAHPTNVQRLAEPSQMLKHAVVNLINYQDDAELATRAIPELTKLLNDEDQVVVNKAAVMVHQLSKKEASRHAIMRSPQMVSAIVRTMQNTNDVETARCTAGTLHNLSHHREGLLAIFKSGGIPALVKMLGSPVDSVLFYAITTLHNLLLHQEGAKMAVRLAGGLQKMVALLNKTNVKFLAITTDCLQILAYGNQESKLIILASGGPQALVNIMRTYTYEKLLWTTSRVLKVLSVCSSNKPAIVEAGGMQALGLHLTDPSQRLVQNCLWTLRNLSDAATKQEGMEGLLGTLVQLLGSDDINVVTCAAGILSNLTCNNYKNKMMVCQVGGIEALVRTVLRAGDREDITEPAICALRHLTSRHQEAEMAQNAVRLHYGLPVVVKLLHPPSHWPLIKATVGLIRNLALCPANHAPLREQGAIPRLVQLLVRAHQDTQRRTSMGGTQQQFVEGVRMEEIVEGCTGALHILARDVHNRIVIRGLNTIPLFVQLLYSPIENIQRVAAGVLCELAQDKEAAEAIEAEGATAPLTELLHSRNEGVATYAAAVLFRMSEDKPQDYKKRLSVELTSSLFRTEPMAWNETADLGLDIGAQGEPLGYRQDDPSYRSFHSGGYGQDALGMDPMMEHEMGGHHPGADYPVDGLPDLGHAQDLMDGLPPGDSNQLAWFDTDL

Biological target: T1, Adherens junction-associated protein 1 (human (endogenous in T24)) (UniProt Q9UKB5)
T1 sequence: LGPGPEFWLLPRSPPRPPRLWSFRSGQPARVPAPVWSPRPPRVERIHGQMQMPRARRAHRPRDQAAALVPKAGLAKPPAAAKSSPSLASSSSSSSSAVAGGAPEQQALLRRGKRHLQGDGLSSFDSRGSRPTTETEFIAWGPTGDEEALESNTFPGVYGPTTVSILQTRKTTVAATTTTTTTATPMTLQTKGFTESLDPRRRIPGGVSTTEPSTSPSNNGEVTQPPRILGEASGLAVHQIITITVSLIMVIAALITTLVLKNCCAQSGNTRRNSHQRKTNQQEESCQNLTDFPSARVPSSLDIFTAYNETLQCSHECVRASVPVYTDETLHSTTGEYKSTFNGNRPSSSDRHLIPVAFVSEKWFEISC
Test: co-IP; endogenous proteins in T24 cell lysate (CLB buffer: 50 mM Tris pH 8.0, 100 mM NaCl, 1% NP-40, 10% glycerol); 1,000 μg lysate with 1 μg of the indicated antibody 3-4 h at 4°C, Protein A/G beads, five washes with NETN buffer; immunoblot

For β-catenin (from UniProt P35222 1-781), the binding was “binds”.
